Reference: PubChem BioAssay AID1259331 (Drosophila RNAi Screening Center, 2017)

Purpose: 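Knock-downs that alter ATP level after a high zinc chloride dose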 (primary screen)
Cells: Drosophila S2R+ cells
Knock-down reagent: long dsRNA against Drosophila genes
Time to read-out: 5 days (4 days knock-down, then 1 day zinc)
Treatment: zinc chloride at 15 mM final level for 1 day
Read-out: 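Total cellular ATP measured by luciferase luminescence as a viability proxy, turned into Z scores from three plate copies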
Reading the numbers: mean Z score: higher = more ATP than other wells, better survival under zinc; ATP luminescence: higher = more ATP, more viable cells
Call rule: 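a reagent is called a hit when its Z score is above 1.5 or below -1.5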
Meaning of the calls: active = hit, ATP up or down; inactive = not a hit
This is an unselected part of about 3,100 reagents tested. 126 of all reagents (4.1%) were called active. 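Calls are per reagent; zinc was so toxic that few knock-downs lowered ATP further, so most hits raise ATP.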 The raw values are shown without normalisation. Unmarked entries are inactive. The numbers tell different reagents against one gene apart. No sequences are given here. Not given: the amount of reagent.

Depletion of PMP34 #1 came out at: mean Z score -0.0916; ATP luminescence, replicate 1 = 46263; ATP luminescence, replicate 2 = 45988.
PMP34 #2 showed mean Z score -0.406; ATP luminescence, replicate 1 = 37005; ATP luminescence, replicate 2 = 51904.
Knock-down of CG15406 #1 came out at: mean Z score 0.593; ATP luminescence, replicate 1 = 53824; ATP luminescence, replicate 2 = 51818.
With knock-down of CG15406 #2, the screen gave mean Z score 0.2; ATP luminescence, replicate 1 = 64748; ATP luminescence, replicate 2 = 62804.
VhaAC45RP #1 scored mean Z score 1.09; ATP luminescence, replicate 1 = 69664; ATP luminescence, replicate 2 = 41753.
With knock-down of VhaAC45RP #2 the results were mean Z score 0.422; ATP luminescence, replicate 1 = 64848; ATP luminescence, replicate 2 = 64172.
With knock-down of NLaz the results were mean Z score 0.477; ATP luminescence, replicate 1 = 51852; ATP luminescence, replicate 2 = 56117.
For Tmc the deposit lists mean Z score 0.22; ATP luminescence, replicate 1 = 82554; ATP luminescence, replicate 2 = 63084.
With knock-down of beta4GalT7, the screen gave mean Z score -0.423; ATP luminescence, replicate 1 = 41188; ATP luminescence, replicate 2 = 56019.
After knock-down of fng #1, the screen gave mean Z score 0.0112; ATP luminescence, replicate 1 = 30165; ATP luminescence, replicate 2 = 33284.
fng #2 scored mean Z score 0.0885; ATP luminescence, replicate 1 = 49040; ATP luminescence, replicate 2 = 49259.
N #1 scored mean Z score -0.674; ATP luminescence, replicate 1 = 50748; ATP luminescence, replicate 2 = 59089.
Depletion of N #2 gave: mean Z score 0.76; ATP luminescence, replicate 1 = 58386; ATP luminescence, replicate 2 = 55996.
Knock-down of Nhe2 #1 came out at: mean Z score 0.747; ATP luminescence, replicate 1 = 38376; ATP luminescence, replicate 2 = 66411.
With knock-down of Nhe2 #2, the screen gave mean Z score 0.273; ATP luminescence, replicate 1 = 54853; ATP luminescence, replicate 2 = 37913.
smo #1 gave mean Z score -0.401; ATP luminescence, replicate 1 = 45785; ATP luminescence, replicate 2 = 55625.
For smo #2, the entry reads mean Z score 0.0539; ATP luminescence, replicate 1 = 67475; ATP luminescence, replicate 2 = 56876.
Against CG42514, the entry reads mean Z score -0.596; ATP luminescence, replicate 1 = 28502; ATP luminescence, replicate 2 = 26291.
S2P #1 scored mean Z score -0.422; ATP luminescence, replicate 1 = 67577; ATP luminescence, replicate 2 = 65382.
S2P #2 gave mean Z score -0.499; ATP luminescence, replicate 1 = 53653; ATP luminescence, replicate 2 = 46606.
GlyT #1 scored mean Z score 1.06; ATP luminescence, replicate 1 = 63839; ATP luminescence, replicate 2 = 49898.
Against GlyT #2, the entry reads mean Z score -0.133; ATP luminescence, replicate 1 = 55693; ATP luminescence, replicate 2 = 54167.
Silencing of CG33303 #1 gave: mean Z score 0.0674; ATP luminescence, replicate 1 = 49882; ATP luminescence, replicate 2 = 49109.
Knock-down of CG33303 #2 resulted in: mean Z score 0.102; ATP luminescence, replicate 1 = 55933; ATP luminescence, replicate 2 = 59500.
